PubChem BioAssay AID720505 | Drosophila RNAi Screening Center, 2013
In all, the deposit lists about 20,000 reagents; this is a random part of those that have a named target and a result. Over the whole deposit, about 2,100 (10%) were called active. 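Raw plate signals without normalisation; calls rest on control-based scores that were not deposited; replicate 2 separates called from uncalled poorly.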 Reagents against one gene are numbered here. Names joined by + are all predicted targets of the reagent. Reagent sequences are not shown. Not given: the amount of reagent, the time to read-out.

- Assay: 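Genes needed for store-operated calcium entry in fly cells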 (primary screen)
- System: Drosophila S2R+ cells
- Reagents: long dsRNA against Drosophila genes
- Treatment: thapsigargin (2 µM) in calcium-free buffer to empty internal stores, then 2 mM calcium added back
- Measured: 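Fluo-4 signal in 384-well plates read on a FLIPR after thapsigargin (2 µM, calcium-free) store depletion and 2 mM calcium add-back; unnormalised mean endpoint per well; screen run twice, selected wells retested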
- Direction: calcium signal and retest calcium signal: higher = more calcium entry after store depletion
- Active means: 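Knock-downs counted as hits when calcium entry dropped relative to STIM1 positive and Rho1 negative controls present on each plate; roughly 1500 genes called, with reductions of differing size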
- Calls: active = called as lowering calcium entry; inactive = not called

| target gene | reagent | calcium signal, replicate 1 | calcium signal, replicate 2 | retest calcium signal, replicate 1 | retest calcium signal, replicate 2 | call |
| --- | --- | --- | --- | --- | --- | --- |
| CG15753 (retired record) (GeneID 32306) | 1 | 80.4 | 157 | 86.6 | 98 | inactive |
| CG15753 (retired record) (GeneID 32306) | 2 | 116 | 136 | – | – | inactive |
| CG15753 (retired record) (GeneID 32306) | 3 | 129 | 98.7 | – | – | inactive |
| CG15753 (retired record) (GeneID 32306) | 4 | 54 | 127 | – | – | active |
| CG15753 (retired record) (GeneID 32306) | 5 | 66.3 | 88.6 | – | – | active |
| CG15753 (retired record) (GeneID 32306) | 6 | 103 | 105 | – | – | inactive |
| snk (GeneID 41607) | 1 | 94.6 | 115 | – | – | inactive |
| Muc55B (GeneID 37057) | 1 | 152 | 66.7 | – | – | inactive |
| Ent2 (GeneID 33921) | 1 | 119 | 230 | – | – | inactive |
| whd (GeneID 36109) | 1 | 145 | 194 | – | – | inactive |
| CG2211 (GeneID 38157) | 1 | 110 | 186 | – | – | inactive |
| Pex23 (GeneID 40229) | 1 | 165 | 147 | – | – | inactive |
| Pex23 (GeneID 40229) | 2 | 71.5 | 160 | – | – | inactive |
| GstT2 (GeneID 246386) | 1 | 138 | 135 | – | – | inactive |
| CG34195 (GeneID 37018) | 1 | 189 | 148 | – | – | inactive |
| CG10265 (GeneID 36676) | 1 | 155 | 159 | – | – | inactive |
| CG10265 (GeneID 36676) | 2 | 233 | 104 | – | – | inactive |
| ich (GeneID 41069) | 1 | 90.1 | 177 | – | – | inactive |
| lncRNA:CR9162 (GeneID 12798573) | 1 | 97.1 | 191 | – | – | inactive |
| CG5555 (GeneID 42302) | 1 | 111 | 223 | – | – | inactive |
| CG8560 (GeneID 38830) | 1 | 110 | 123 | – | – | inactive |
| Irk1 (GeneID 42742) | 1 | 255 | 131 | – | – | inactive |
| Irk1 (GeneID 42742) | 2 | 311 | 205 | – | – | inactive |
| Cpr65Au (GeneID 59158) | 1 | 120 | 200 | – | – | inactive |
| Pld (GeneID 35554) | 1 | 180 | 120 | – | – | inactive |
| Surf1 (GeneID 44498) | 1 | 93.9 | 74 | – | – | inactive |
| Surf1 (GeneID 44498) | 2 | 111 | 109 | – | – | inactive |
| CG5676 (GeneID 34368) | 1 | 111 | 128 | – | – | inactive |
| CG10950 (GeneID 36942) | 1 | 217 | 173 | – | – | inactive |
| CG32793 (GeneID 31280) | 1 | 107 | 137 | – | – | inactive |
| CG32793 (GeneID 31280) | 2 | 110 | 161 | – | – | inactive |
| Lac (GeneID 36363) | 1 | 185 | 144 | – | – | inactive |
| CG12448 (GeneID 34942) | 1 | 117 | 93.7 | – | – | inactive |
| Glg1 (GeneID 40382) | 1 | 103 | 82.8 | – | – | inactive |
| Glg1 (GeneID 40382) | 2 | 78.2 | 142 | – | – | inactive |
| Glg1 (GeneID 40382) | 3 | 88 | 117 | – | – | inactive |
| Rb97D (GeneID 43231) | 1 | 127 | 108 | – | – | inactive |
| amd (GeneID 35188) | 1 | 145 | 134 | 114 | 108 | inactive |
| amd (GeneID 35188) | 2 | 187 | 105 | – | – | inactive |
| ast (GeneID 33282) | 1 | 142 | 204 | – | – | inactive |
| Hsp70Bb + Hsp70Ba + Hsp70Bc + 1 more | 1 | 137 | 108 | – | – | inactive |
| Hsp70Bb + Hsp70Ba + Hsp70Bc + 1 more | 2 | 206 | 103 | – | – | inactive |
| Obp56i (GeneID 246667) | 1 | 96.8 | 96 | – | – | inactive |
| Liprin-beta (GeneID 39524) | 1 | 118 | 101 | – | – | inactive |
| Liprin-beta (GeneID 39524) | 2 | 90.1 | 131 | – | – | inactive |
| CG7484 (GeneID 39969) | 1 | 83.8 | 154 | – | – | inactive |
| aspr (GeneID 33013) | 1 | 191 | 97 | – | – | inactive |
| aspr (GeneID 33013) | 2 | 196 | 105 | – | – | inactive |
| kirre (GeneID 31292) | 1 | 77.8 | 162 | – | – | inactive |
| ncd (GeneID 43517) | 1 | 149 | 123 | – | – | inactive |
| mrn (GeneID 39688) | 1 | 134 | 84.9 | – | – | inactive |
| Cep97 (GeneID 33610) | 1 | 129 | 217 | – | – | inactive |
| CG42531 (GeneID 8673972) | 1 | 57.1 | 117 | – | – | inactive |
| Ir41a (GeneID 2768714) | 1 | 119 | 137 | – | – | inactive |
| Ir41a (GeneID 2768714) | 2 | 108 | 152 | – | – | inactive |
| Eip63E (GeneID 38433) | 1 | 85.7 | 104 | – | – | inactive |
| Reg-2 (GeneID 38075) | 1 | 61 | 121 | – | – | active |
| Corin (GeneID 35691) | 1 | 66 | 122 | 144 | 125 | inactive |
| Hex-t2 (GeneID 43191) | 1 | 55.8 | 81.9 | – | – | active |
| CG5217 (GeneID 42311) | 1 | 185 | 108 | – | – | inactive |
| Jon65Aiv (GeneID 38682) | 1 | 58.9 | 66 | – | – | inactive |
| CG15308 (GeneID 50415) | 1 | 55.2 | 128 | – | – | active |
| CG16824 (GeneID 5740834) | 1 | 76.4 | 89.4 | – | – | active |
| Septin4 (GeneID 32646) | 1 | 107 | 86.5 | – | – | inactive |
| CG8945 (GeneID 32693) | 1 | 108 | 97.1 | – | – | inactive |
| CG8945 (GeneID 32693) | 2 | 116 | 133 | – | – | inactive |
| syd (GeneID 43905) | 1 | 84.8 | 88.1 | – | – | inactive |
| RpL34b (GeneID 41120) | 1 | 106 | 93.2 | – | – | inactive |
| RPA3 (GeneID 32113) | 1 | 68.2 | 91.6 | – | – | inactive |
| CG13984 (GeneID 33879) | 1 | 56 | 134 | – | – | active |
| Vha36-3 (GeneID 31235) | 1 | 69 | 130 | – | – | inactive |
| ND-51L2 (GeneID 36695) | 1 | 129 | 198 | – | – | inactive |
| PGAP1 (GeneID 31487) | 1 | 81.8 | 91.3 | – | – | inactive |
| CG9706 (GeneID 39876) | 1 | 116 | 102 | – | – | inactive |
| CG12818 (GeneID 41261) | 1 | 141 | 139 | – | – | inactive |
| CG14915 (GeneID 34536) | 1 | 176 | 181 | – | – | inactive |
| CG13110 (GeneID 34253) | 1 | 125 | 189 | 89 | 119 | inactive |
| poe (GeneID 46243) | 1 | 126 | 219 | – | – | inactive |
| CG31121 (GeneID 42975) | 1 | 146 | 116 | – | – | inactive |
| CG31121 (GeneID 42975) | 2 | 88.5 | 98.5 | – | – | active |
| Ltn1 (GeneID 40127) | 1 | 107 | 111 | – | – | inactive |
| Ltn1 (GeneID 40127) | 2 | 109 | 141 | – | – | inactive |
| meng (GeneID 33948) | 1 | 154 | 89.8 | – | – | inactive |
| Loxl1 (GeneID 43712) | 1 | 94.1 | 116 | – | – | inactive |
| CG42380 + CG42379 + PIG-M + 1 more | 1 | 65.5 | 4620 | – | – | active |
| CG42380 + CG42379 + PIG-M + 1 more | 2 | 90 | 85.8 | – | – | inactive |
| CG13614 (GeneID 42911) | 1 | 247 | 91.9 | – | – | inactive |
| Dhc98D (GeneID 43379) | 1 | 128 | 128 | – | – | inactive |
| Brd (GeneID 39620) | 1 | 71.8 | 116 | – | – | inactive |
| CG13457 (GeneID 39649) | 1 | 91.6 | 111 | – | – | inactive |
| CG17931 + CG42446 | 1 | 144 | 144 | – | – | inactive |
| CG31562 (retired record) (GeneID 40753) | 1 | 79.4 | 171 | – | – | inactive |
| CG31562 (retired record) (GeneID 40753) | 2 | 91.2 | 149 | – | – | inactive |
| CG15143 (GeneID 35062) | 1 | 127 | 139 | – | – | inactive |
| Ankle2 (GeneID 32732) | 1 | 120 | 96.1 | – | – | inactive |
| Ankle2 (GeneID 32732) | 2 | 80.1 | 126 | – | – | inactive |
| Sec63 (GeneID 38819) | 1 | 91.5 | 50.3 | 104 | 113 | inactive |
| CG31460 (GeneID 318747) | 1 | 118 | 163 | – | – | inactive |
| CG12535 (GeneID 31311) | 1 | 90.7 | 106 | – | – | inactive |
| Lerp (GeneID 43223) | 1 | 126 | 118 | – | – | inactive |
| Lerp (GeneID 43223) | 2 | 92.8 | 109 | – | – | inactive |
| Lerp (GeneID 43223) | 3 | 105 | 125 | – | – | inactive |
| Lerp (GeneID 43223) | 4 | 111 | 135 | – | – | inactive |
| CG34057 (GeneID 3885645) | 1 | 103 | 68.7 | – | – | inactive |
| CG13955 (GeneID 35968) | 1 | 141 | 99.2 | – | – | inactive |
| Aladin (GeneID 31881) | 1 | 206 | 130 | – | – | inactive |

Targets above whose target name begins with R or r (4):
| target gene | reagent | calcium signal, replicate 1 | calcium signal, replicate 2 | retest calcium signal, replicate 1 | retest calcium signal, replicate 2 | call |
| --- | --- | --- | --- | --- | --- | --- |
| Rb97D (GeneID 43231) | 1 | 127 | 108 | – | – | inactive |
| Reg-2 (GeneID 38075) | 1 | 61 | 121 | – | – | active |
| RpL34b (GeneID 41120) | 1 | 106 | 93.2 | – | – | inactive |
| RPA3 (GeneID 32113) | 1 | 68.2 | 91.6 | – | – | inactive |
